PubChem BioAssay AID1259405 | NCATS | 2018

Assay: 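Mouse-designed siRNAs used to find CHO productivity engineering targets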 (primary screen)
System: Chinese hamster CHO-K1 ovary cells with stable secreted eGFP expression
Reagents: single siRNA against mouse genes, 0.8 pmol siRNA per well (2 µl of 400 nM stock)
Duration: 3 days
Detection: 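Percent of the per-plate non-targeting control median for intracellular GFP per well by laser scanning cytometry and for cell viability by ATP luminescence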
Reading the numbers: GFP, % of control: higher = more GFP per well, higher productivity; viability (ATP), % of control: higher = more viable cells (more ATP)
Call rule: 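a knock-down is called active if GFP reaches 120% or more of non-targeting control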
This is an unselected part of about 50,000 deposited reagents. Of all reagents, about 4,000 (8%) are marked active. 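Mouse siRNA library applied to hamster cells; one well for each siRNA.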 Reagents against one gene are numbered here. Reagent sequences are not shown.

gene | reagent no. | GFP, % of control | viability (ATP), % of control | Call
Fam216a | 1 | 57.2 | 87.7 | inactive
Fam216a | 2 | 79.2 | 59.4 | inactive
Fam216a | 3 | 76 | 83.9 | inactive
Ube3c | 1 | 95.9 | 78.1 | inactive
Ube3c | 2 | 63.1 | 57.1 | inactive
Ube3c | 3 | 60.8 | 51.3 | inactive
Pik3r5 | 1 | 27.2 | 53.4 | inactive
Pik3r5 | 2 | 59.9 | 54.3 | inactive
Calr | 1 | 67.9 | 84.1 | inactive
Calr | 2 | 57.6 | 83.2 | inactive
Rmnd5b | 1 | 69.7 | 70.1 | inactive
Rmnd5b | 2 | 97.4 | 86.5 | inactive
Rmnd5b | 3 | 119 | 65.3 | inactive
Dlgap1 | 1 | 46.4 | 32 | inactive
Dlgap1 | 2 | 60.6 | 72.4 | inactive
Dlgap1 | 3 | 43 | 35.9 | inactive
Casp3 | 1 | 79.1 | 109 | inactive
Casp3 | 2 | 59.5 | 57.3 | inactive
Casp3 | 3 | 103 | 76.4 | inactive
Zfp36l3 | 1 | 60 | 84.7 | inactive
Zfp36l3 | 2 | 126 | 72.3 | active
Zfp36l3 | 3 | 54.5 | 72.5 | inactive
Tnfsf4 | 1 | 87.5 | 80 | inactive
Tnfsf4 | 2 | 63.1 | 72.2 | inactive
Tnfsf4 | 3 | 57.1 | 56.9 | inactive
Akap10 | 1 | 51.5 | 57.4 | inactive
Akap10 | 2 | 114 | 93.5 | inactive
Or8k28 | 1 | 103 | 52 | inactive
Or8k28 | 2 | 15.7 | 36.6 | inactive
Or8k28 | 3 | 84.7 | 114 | inactive
Oprm1 | 1 | 111 | 74.8 | inactive
Oprm1 | 2 | 94.4 | 63.2 | inactive
Oprm1 | 3 | 18.4 | 20 | inactive
Defb1 | 1 | 54.4 | 55.9 | inactive
Defb1 | 2 | 74.1 | 86 | inactive
Defb1 | 3 | 57.6 | 64.1 | inactive
Zfp871 | 1 | 87.2 | 74.8 | inactive
Zfp871 | 2 | 55.5 | 56.6 | inactive
Zfp871 | 3 | 96.7 | 93.9 | inactive
Rspo3 | 1 | 42.8 | 62.4 | inactive
Rspo3 | 2 | 103 | 113 | inactive
Rspo3 | 3 | 57.3 | 57.7 | inactive
Whrn | 1 | 41.6 | 38.4 | inactive
Whrn | 2 | 86.2 | 108 | inactive
Gsap | 1 | 47 | 55 | inactive
Gsap | 2 | 54.4 | 37.7 | inactive
Gsap | 3 | 74.6 | 92.7 | inactive
Or2ag1b | 1 | 61.3 | 28.7 | inactive
Or2ag1b | 2 | 120 | 58.3 | active
Or2ag1b | 3 | 52.2 | 21.4 | inactive
Or6f1 | 1 | 72.3 | 85.4 | inactive
Or6f1 | 2 | 98.6 | 77 | inactive
Or6f1 | 3 | 63 | 62.3 | inactive
Chchd7 | 1 | 87.6 | 88.3 | inactive
Chchd7 | 2 | 29.6 | 74.4 | inactive
Chchd7 | 3 | 80.1 | 83.8 | inactive
Adam24 | 1 | 140 | 112 | active
Adam24 | 2 | 77 | 47.8 | inactive
Adam24 | 3 | 73.1 | 59.8 | inactive
Lce3f | 1 | 112 | 67.1 | inactive
Lce3f | 2 | 105 | 74.3 | inactive
Lce3f | 3 | 86.9 | 88.2 | inactive
Ikzf4 | 1 | 106 | 88.4 | inactive
Ikzf4 | 2 | 63.2 | 69.7 | inactive
Ccl28 | 1 | 68.3 | 81.2 | inactive
Ccl28 | 2 | 29.3 | 49.6 | inactive
Ccl28 | 3 | 82.5 | 116 | inactive
Ostn | 1 | 74.8 | 89.9 | inactive
Ostn | 2 | 78 | 94.6 | inactive
Ostn | 3 | 82.3 | 64.7 | inactive
Or6d13 | 1 | 39.6 | 21.5 | inactive
Or6d13 | 2 | 83.9 | 98.3 | inactive
Or6d13 | 3 | 62.2 | 65.7 | inactive
Tars2 | 1 | 70.8 | 52.1 | inactive
Tars2 | 2 | 88.3 | 94.4 | inactive
Tars2 | 3 | 99.1 | 94.6 | inactive
H3f3a | 1 | 43.3 | 59.8 | inactive
H3f3a | 2 | 109 | 90.2 | inactive
H3f3a | 3 | 51.9 | 84.5 | inactive
Or11h4 | 1 | 89.3 | 52.8 | inactive
Or11h4 | 2 | 78.9 | 92.4 | inactive
Or11h4 | 3 | 52.2 | 55.8 | inactive
Cmtm8 | 1 | 105 | 85.2 | inactive
Cmtm8 | 2 | 110 | 83.4 | inactive
Cmtm8 | 3 | 59.4 | 97.1 | inactive
